# Data as given in PubChem BioAssay AID504791 (Drosophila RNAi Screening Center, 2011)
# Screen: 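Genes of the fly required for silencing by miRNA, siRNA or endo-siRNA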 (primary screen)
# Cell system: Drosophila S2-derived reporter cells
# Knock-down reagent: long dsRNA against Drosophila genes, about 150-250 ng dsRNA per well (siRNA assay); about 80-120 ng (miRNA assay)
# Timing: about 5 days (siRNA assay); about 4 days (miRNA assay)
# Challenge: copper sulfate induction of reporters: 25 µM (siRNA assay); 200 mM stated (miRNA assay), 1-2 days before reading
# Measured: 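Per-well ratio of Renilla over firefly light, expressed relative to that plate's average ratio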
# Rule for the call: 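a well was a first-pass pick when its plate-scaled ratio rose above 1.5 (siRNA assay) or 1.6 (miRNA assay), or dropped below 0.6; a gene counted only if two separate dsRNAs agreed on retest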
# In all, the deposit lists about 23,000 reagents; shown is a random part of those that have a named target and a result. In the full data, 199 (0.86%) got an active call. 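Plate-scaled ratios behind the calls are not deposited; printed light signals are raw; many rows marked increased or decreased are still called inactive.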 Entries without a mark were called inactive. Reagents against one gene are numbered here. Names joined by + are all predicted targets of the reagent. The record does not give: the direction of the score.
target gene,reagent,"stable assay Renilla, run 1 (luminescence)","stable assay firefly, run 1 (luminescence)"
CG30065 (GeneID 246431),1,5527,3.38e5
sinu (GeneID 46187),1,4346,3.74e5
janA (GeneID 43569),1,6948,4.27e5
CG6073 (GeneID 43180),1,5228,3.94e5
CG6073 (GeneID 43180),2,2948,2.72e5
Gr58b (GeneID 37502),1,6364,3.21e5
Clc (GeneID 40221),1,9935,3.46e5
kra (GeneID 40680),1,10584,5.00e5
CG12481 (GeneID 32364),1,5223,4.52e5
Tat (GeneID 32381),1,6246,5.32e5
RFeSP (GeneID 44390),1,7983,5.81e5
CG14929 + CG4970 + CG14930,1,6922,3.74e5
CG1628 (GeneID 31990),1,7167,3.73e5

Limited to “stable assay Renilla, run 1 (luminescence)” (5 entries from above):
CG6073 (GeneID 43180) #1: 5228
CG6073 (GeneID 43180) #2: 2948
Gr58b (GeneID 37502): 6364
Clc (GeneID 40221): 9935
kra (GeneID 40680): 10584

Continued.
target gene,reagent,"stable assay Renilla, run 1 (luminescence)","stable assay firefly, run 1 (luminescence)"
Pop5 (GeneID 39915),1,7130,4.26e5
CG6282 (GeneID 38985),1,7463,4.01e5
Adss (GeneID 42466),1,8857,3.39e5
CG16743 (GeneID 34517),1,6039,2.99e5
Msr-110 (GeneID 38629),1,8613,3.62e5
CG9213 (GeneID 32490),1,8949,4.20e5
CG10481 (GeneID 35273),1,6496,5.68e5
MetRS-m (GeneID 41733),1,8243,4.22e5
MetRS-m (GeneID 41733),2,7586,6.18e5
Reg-5 (GeneID 37968),1,35180,2.32e6
Galt (GeneID 33935),1,3.01e5,9.43e5
Cul5 (GeneID 43434),1,6974,3.60e5
Chpf (GeneID 32259),1,5703,4.37e5
Chpf (GeneID 32259),2,8554,4.34e5
CG17564 (GeneID 35205),1,7546,4.36e5
CG33234 (GeneID 2769006),1,5236,4.41e5
CG32266 (GeneID 317945),1,5702,4.05e5
CG10939 (GeneID 44155),1,12259,5.95e5
CG10939 (GeneID 44155),2,7890,3.88e5
wisp (GeneID 32152),1,8269,3.26e5
wisp (GeneID 32152),2,2692,2.79e5
